Experimental data from paper PMC12596378.
No constants are given. Whether binding was seen depends on the method and setting. For some of these results: Binding seen in cells or lysates may run through a third protein. Some entries that bind do so weakly or less than the wild type. For some of these results: Tags and fused reporters may be left off the sequences shown.

Sequences of proteins named here, by UniProt entry; tags and fusion partners are left off. A change or cut given only in a name is not applied to a line headed by its entry.
UniProt P07305: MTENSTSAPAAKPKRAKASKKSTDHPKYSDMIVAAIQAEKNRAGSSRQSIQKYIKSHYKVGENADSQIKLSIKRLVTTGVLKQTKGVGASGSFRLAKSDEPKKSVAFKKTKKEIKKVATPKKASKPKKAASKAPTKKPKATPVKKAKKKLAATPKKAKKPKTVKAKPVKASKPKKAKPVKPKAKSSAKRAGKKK
UniProt P09429: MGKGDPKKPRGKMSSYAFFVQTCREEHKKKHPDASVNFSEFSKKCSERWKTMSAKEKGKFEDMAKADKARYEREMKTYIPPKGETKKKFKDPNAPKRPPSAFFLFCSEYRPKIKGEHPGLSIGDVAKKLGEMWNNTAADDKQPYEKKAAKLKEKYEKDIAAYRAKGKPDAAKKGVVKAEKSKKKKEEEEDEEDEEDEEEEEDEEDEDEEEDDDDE

Tests used:
[1] = target: T1, GST-NS1 fusion protein (respiratory syncytial virus nonstructural protein 1) (respiratory syncytial virus) (UniProt P0DOE9); assay: pull-down; GST or His fusion protein (30 ug) coupled to GST or His tag purification resin, 4 C 2 h; target fusion protein added overnight at 4 C; western blot; both purified
T1 sequence: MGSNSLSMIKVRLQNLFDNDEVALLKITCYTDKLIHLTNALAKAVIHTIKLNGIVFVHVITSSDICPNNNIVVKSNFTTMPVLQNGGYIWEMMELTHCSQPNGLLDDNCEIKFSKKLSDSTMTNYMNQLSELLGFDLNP

[2] = target: His-H1.0 fusion protein (histone H1.0) (UniProt P07305); assay: as above
[3] = target: T2, nonstructural protein 1 (NS1) made in RSV-infected A549 cells (human RSV, A2 strain) (UniProt P0DOE9); assay: co-IP; A549 cell lysates; HMGB1, NS1 or H1.0 antibody on SureBeads Protein G, 2 h room temperature; cells RSV-infected 24 h, or NS1/control lentivirus 72 h, or RSV 6 h then siNS1/siCON 24 h
T2 sequence: T1 sequence

Substance: HA-HMGB1 fusion protein (high mobility group box-1) (from UniProt P09429 1-215)
- binding [1]: no binding
- binding [2]: binds

Substance: His-H1.0 fusion protein (histone H1.0) (from UniProt P07305 2-194)
- binding [1]: binds

Substance: histone H1.0, endogenous in A549 cells (from UniProt P07305 1-194)
- binding [3]: binds
